Marks after values point to notes of the source that are not given here.
Test system: HL-60 cells
Experiment: Cell proliferation test (MTT method)
Type: cell-based
Conditions: 48 h, MTT absorbance at 492 nm
Experimental: Tested drugs with different concentrations were added, and repeated four wells for each drug concentration group, then continued to culture in a CO2 incubator. Cell proliferation was detected by MTT method 48 h after culture. 15 ul MTT (5 mg/ml) was added in each well, and continued to culture for 4 h. Suspension in the well was collected, centrifuged, and supernatant was discarded. 100 ul of DMSO was added into each well to completely dissolve formazan particles. The solution was sucked into the original well, the absorbance at 492 nm was detected by ELISA, and the inhibiting rate was calculated according to the formula CI=(1-A test group /A control group)×100%.

Compound: O=[As]([O-])([O-])[O-].[Na+].[Na+].[Na+] [Na3AsO4]
- A492 (7.5 uM): 0.331 ± 0.003 ^
- A492 (15 uM): 0.313 ± 0.011* *
- A492 (30 uM): 0.293 ± 0.015* *
- A492 (60 uM): 0.257 ± 0.011*^
- A492 (120 uM): 0.215 ± 0.006*^

Reference: patent US9205071B2, “Arsenic compounds, their preparation methods and uses thereof” (Changzhou Hi-Tech District Multiple Dimension Industry …, priority 2009, dated 2015)
